Assay results taken from PubChem BioAssay AID652054 (National Center for Advancing Translational Sciences (NCATS), 2013).
About 9,100 (2.5%) of roughly 360,000 compounds were called active. The shares of active, inactive and inconclusive entries below differ from those in the screen. Cut-off read from the data, not from the text of the source: active = max response below about -50%; inconclusive = no clear call, values can overlap the other calls; inactive = above that.

By UniProt entry, the sequences of proteins in these tests, tags left out.
UniProt P35462, whole entry, looked up: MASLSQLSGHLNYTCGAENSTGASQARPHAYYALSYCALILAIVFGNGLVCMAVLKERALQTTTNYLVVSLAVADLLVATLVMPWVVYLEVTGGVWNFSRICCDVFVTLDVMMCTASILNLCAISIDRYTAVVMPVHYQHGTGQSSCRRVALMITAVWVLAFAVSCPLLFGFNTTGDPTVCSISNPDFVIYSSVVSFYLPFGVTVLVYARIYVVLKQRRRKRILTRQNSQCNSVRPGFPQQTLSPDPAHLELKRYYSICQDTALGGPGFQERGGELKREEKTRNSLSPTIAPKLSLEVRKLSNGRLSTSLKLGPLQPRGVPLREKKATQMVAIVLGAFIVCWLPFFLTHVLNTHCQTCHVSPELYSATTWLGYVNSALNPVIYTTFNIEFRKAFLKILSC

biological target: D(3) dopamine receptor (Homo sapiens) (UniProt P35462); assay: qHTS of D3 Dopamine Receptor Antagonist: qHTS; details: D3R cells, DiscoveRx beta-arrestin luminescence, antagonist mode; active compounds read low
How it was run: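 Cells plated overnight at 1500 cells/well, then exposed to library compounds with dopamine controls for 90 minutes at 37 degrees C. DiscoveRx reagent added for 30–60 minutes at room temperature; luminescence read, quantitative HTS format.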
% is set by controls: 0 for no effect and ±100 for the full control effect.

| SMILES | max response, negative = inhibition |
| --- | --- |
| Cc1nn(CCC(=O)NNC(=S)NCC(C)C)c(C)c1Br | active: -104% |
| Cc1ccc(C)n1-c1ccc(N(C)C)cc1 | inconclusive: -34.9% |
| CCn1cc(C(=O)O)c(=O)c2cc(F)c(N3CCN(C(=S)NC(=O)c4cccc(C)c4)CC3)cc21 | inactive: 10.1% |
| COc1ccc(Nc2ccc(S(=O)(=O)N3CCCCC3)cc2[N+](=O)[O-])cc1OC | inactive: 17.9% |
| Cc1ccc(-c2nc(C(=O)O)cs2)cc1 | inactive: 0.967% |
| O=C1C=C(NCCc2cc(Br)c(O)c(Br)c2)C(=O)c2ncccc21 | inconclusive: -49.9% |
| Cc1noc(C)c1CSc1nc2ccccc2c(=O)n1-c1ccc(F)cc1F | inactive: -3.86% |
| C=CCN(C(=O)CCC(=O)Nc1cc(C)on1)C(C(=O)NC1CCCC1)c1ccc(OC)cc1OC (stereo not drawn) | inconclusive: -44.9% |
| CC(NC(=O)/C(C#N)=C/c1ccc([N+](=O)[O-])o1)c1ccccc1 (stereo not drawn) | active: -96% |
| OC(CNc1nc2ccccc2s1)c1ccccc1 (stereo not drawn) | inconclusive: -45.2% |
| CCOC(=O)c1cnc(-n2nc(C)cc2C)nc1Nc1ccc(N(C)C)cc1 | inconclusive: -33.7% |
| CCc1sc(/C=C(/C#N)C(N)=S)cc1[N+](=O)[O-] | inactive: -11.5% |
| CC(C)Oc1ccc(CN2CCC2(C)C(=O)NCc2cccc3ccccc23)cc1 (stereo not drawn) | inactive: 24.1% |
| C/C(CC(=O)Nc1cccc(Cl)c1)=N\NC(=O)Cc1ccc(Cl)cc1 | inconclusive: -31.7% |
| O=S(=O)(Nc1ncnc2sc3c(c12)CCC3)c1ccc2ccccc2c1 | inconclusive: -39.1% |
| N#CCC(=O)Nc1ccc(C(=O)OCC(=O)NC(=O)Cc2ccccc2)cc1 | inconclusive: -35.1% |
| CCOC(=O)C1(CCCc2ccccc2)CCN(CCCn2cccn2)CC1 | inconclusive: -36.3% |
| CC(C)Cn1c(N)c(C(=O)COC(=O)c2cc(-c3ccccc3)nc3ccccc23)c(=O)n(C)c1=O | inactive: 15.4% |
| COCCn1c(SCC(=O)NNC(=O)c2cc(Cl)ccc2OC)nnc1-c1ccncc1 | active: -100% |
| Cc1ccc2c(c1)C(=O)C(=O)N2Cc1ccc(C(F)(F)F)cc1 | active: -50.8% |

| SMILES | max response, negative = inhibition |
| --- | --- |
| Clc1ccc(N2CCN(Cc3ccc(Br)o3)CC2)cc1 | active: -52.3% |
| Cc1ccc2nc(N(CCCN(C)C)C(=O)c3cc(-c4cccs4)nc4ccccc34)sc2c1 | inactive: -29.7% |
| O=C(CCCN1C(=O)CCC1=O)Nc1ccc(Cl)c(C(F)(F)F)c1 | inconclusive: -42.1% |
| COC(=O)c1ccc(-n2c(C)cc(C(=O)CCl)c2C)cc1 | inconclusive: -36.7% |
| NC(=O)c1ccccc1OCC(=O)NS(=O)(=O)c1ccccc1 | active: -65.5% |
| C=CCc1cc(OC)ccc1OCCOCCN1CCc2ccccc2C1 | active: -87.5% |
| COc1ccccc1Oc1coc2c(CN(C)C)c(O)ccc2c1=O | inconclusive: -33.4% |
| O=C(c1cnsn1)N1CCCC(Nc2ccc(F)c(F)c2)C1 (stereo not drawn) | inconclusive: -34.7% |
| O=S(=O)(c1ccccc1)N(CC(O)CN1CCCCC1)c1ccccc1 (stereo not drawn) | inconclusive: -42.6% |
| Cc1c(C(=O)Nc2ccc(Cl)cc2)c2ccccn2c1C(=O)c1ccc(F)cc1 | inactive: 0.791% |
| CCCCNCC#CCOc1cc(C)ccc1C(C)C | active: -52% |
| CC(C)(C)c1ccc(NC(=O)Nc2ccc(F)cc2)cc1 | inactive: -11.6% |
| CCc1nnc(NS(=O)(=O)c2ccc(N3C(=O)c4ccccc4C3=O)cc2)s1 | inconclusive: -34.7% |
| Cc1n[nH]c(=S)n(/N=C/c2ccccn2)c1=O | inconclusive: -43.2% |
| S=C(NCc1ccco1)N1CCN(C/C=C/c2ccccc2)CC1 | inactive: 15.8% |
| COc1ccc(/C=C/C(=O)NCC(=O)N/N=C/c2cc(Br)ccc2OCc2ccccc2)cc1 | inconclusive: -32.7% |
| COc1cc(CNCCc2c[nH]c3ccccc23)cc(Cl)c1OCC(N)=O | inconclusive: -42.4% |
| Cc1cc2nnc(SC(C)C#N)n2c2ccccc12 (stereo not drawn) | inactive: 4.23% |
| CCOc1ccc2nc(NC(=O)CN3CCN(CC)CC3)sc2c1 | inconclusive: -32.9% |
| CC(=O)Nc1ccc(N2CCCC(C)C2)c([N+](=O)[O-])c1 (stereo not drawn) | active: -55.1% |

| SMILES | max response, negative = inhibition |
| --- | --- |
| Cn1nc(C(=O)Nc2nc(-c3ccccn3)cs2)c2ccccc2c1=O | inactive: 1.23% |
| C[C@H]1CNC(=O)c2c(C(=O)Nc3ccc(CNC(=O)OC(C)(C)C)cc3)ncn21 | inactive: 112% |
| CC1CCCCN1CCCNC(=O)c1ccc(Br)cc1 (stereo not drawn) | active: -65% |
| COc1ccc(C(=O)N/N=C(\C)c2ccccn2)cc1OC | active: -54.1% |
| O=C(Cn1c(C(=O)N2CCN(C3CCCC3)CC2)cc2sccc21)c1ccccc1 | active: -77.7% |
| CC(C)CC(NC(=O)OCc1ccccc1)C(=O)NC(Cc1ccccc1)C(=O)CCl (stereo not drawn) | inactive: -10.4% |
| CCN1CCN(CCn2c(=S)[nH]c3cc4c(cc3c2=O)OCO4)CC1 | inconclusive: -37.7% |
| O=C(NCC1CCCO1)c1ccc2[nH]c3c(c2c1)CCCC3 (stereo not drawn) | inactive: -11.8% |
| O=C(COc1ccc2c3c(c(=O)oc2c1)CCC3)NC(Cc1ccc(Cl)cc1)C(=O)O (stereo not drawn) | inconclusive: -44.8% |
| CCOC(=O)c1c(-c2ccc(-c3ccccc3)cc2)csc1NC(=O)CCN1CCOCC1 | inactive: 68.8% |
| CCc1ccc2[nH]c3nc(N/N=C/c4cccc(O)c4)nnc3c2c1 | inconclusive: -31.1% |
| COc1ccccc1CCC(=O)Nc1ccc(C)cc1Cl | inactive: -7.33% |
| Cc1cc(C(=O)NNC(=S)NCC(C)C)no1 | inconclusive: -30.9% |
| CCOC(=O)C1=C(C)NC(=S)N(C(C)=O)C1c1ccc(OC)c(OC)c1 (stereo not drawn) | inactive: 1.86% |
| CCCCC[C@@H](C)N1C[C@@H](COCc2ccccc2)Oc2cc(N3CCC[C@H]3COC)ccc2S1(=O)=O | inactive: 5.66% |
| CCn1c(CNc2nc3ccccc3n2C(C)C)nc2ccccc21 | active: -58.9% |
| C/C(=N/NC(=O)Cc1cccn1C)c1ccccc1 | inactive: 12.2% |
| CCOc1ccccc1N(CC(=O)Nc1ccccc1C(=O)O)S(C)(=O)=O | inactive: -7.96% |

Exported with tabs: entries from further up.
SMILES	max response, negative = inhibition
C=CCc1cc(OC)ccc1OCCOCCN1CCc2ccccc2C1	active: -87.5%
COc1ccccc1Oc1coc2c(CN(C)C)c(O)ccc2c1=O	inconclusive: -33.4%
O=C(c1cnsn1)N1CCCC(Nc2ccc(F)c(F)c2)C1 (stereo not drawn)	inconclusive: -34.7%
O=S(=O)(c1ccccc1)N(CC(O)CN1CCCCC1)c1ccccc1 (stereo not drawn)	inconclusive: -42.6%
Cc1c(C(=O)Nc2ccc(Cl)cc2)c2ccccn2c1C(=O)c1ccc(F)cc1	inactive: 0.791%
